Results are given in words; binding and its absence hold for the method and conditions named. Binding seen in cells or lysates may run through a third protein. Some results given as binding are weak or reduced against the parent protein; the word gives no strength. Tags and fused reporters may be left off the sequences shown.
T1: GFP-tagged A17-PABPN1 (UniProt Q86U42)
T1 sequence: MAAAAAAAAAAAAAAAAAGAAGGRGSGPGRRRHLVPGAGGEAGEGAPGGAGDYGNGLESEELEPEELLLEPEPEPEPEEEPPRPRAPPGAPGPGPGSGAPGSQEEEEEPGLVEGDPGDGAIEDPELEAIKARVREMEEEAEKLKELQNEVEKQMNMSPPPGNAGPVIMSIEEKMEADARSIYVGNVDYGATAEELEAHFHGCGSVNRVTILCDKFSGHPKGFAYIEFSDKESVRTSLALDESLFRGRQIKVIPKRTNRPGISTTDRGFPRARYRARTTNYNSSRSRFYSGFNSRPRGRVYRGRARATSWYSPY

Amino acid sequences for entries named in this document (tags omitted).
UniProt Q9WUD1: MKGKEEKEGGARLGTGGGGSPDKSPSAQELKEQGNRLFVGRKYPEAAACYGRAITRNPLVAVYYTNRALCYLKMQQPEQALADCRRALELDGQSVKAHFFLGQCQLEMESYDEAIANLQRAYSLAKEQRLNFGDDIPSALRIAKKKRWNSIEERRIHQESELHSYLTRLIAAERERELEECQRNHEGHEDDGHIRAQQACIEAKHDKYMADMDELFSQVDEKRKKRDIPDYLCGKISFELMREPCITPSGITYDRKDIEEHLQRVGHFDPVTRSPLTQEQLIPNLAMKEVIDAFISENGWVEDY

B1: GFP-tagged A10-PABPN1 (protein, UniProt Q86U42 1-306)
chain: MAAAAAAAAAAGAAGGRGSGPGRRRHLVPGAGGEAGEGAPGGAGDYGNGLESEELEPEELLLEPEPEPEPEEEPPRPRAPPGAPGPGPGSGAPGSQEEEEEPGLVEGDPGDGAIEDPELEAIKARVREMEEEAEKLKELQNEVEKQMNMSPPPGNAGPVIMSIEEKMEADARSIYVGNVDYGATAEELEAHFHGCGSVNRVTILCDKFSGHPKGFAYIEFSDKESVRTSLALDESLFRGRQIKVIPKRTNRPGISTTDRGFPRARYRARTTNYNSSRSRFYSGFNSRPRGRVYRGRARATSWYSPY
B2: GFP-tagged A17-PABPN1 (protein, UniProt Q86U42 1-306)
chain: T1 sequence

What was measured:
GFP-tagged A17-PABPN1 = target: T1, GFP-tagged A17-PABPN1; assay: co-IP; A17-PABPN1-expressing C2C12 myoblasts treated with 17-AAG for the indicated times; lysates precipitated with anti-GFP antibody
Myc-tagged CHIP (mouse) = Myc-tagged CHIP (mouse) (UniProt Q9WUD1); assay: co-IP; HEK293 cells co-transfected with Myc-tagged CHIP and GFP-tagged A10-PABPN1 or A17-PABPN1; lysates precipitated with a Myc antibody 48 hr after transfection

Row | Molecule | binding (GFP-tagged A17-PABPN1) | binding (Myc-tagged CHIP (mouse))
1 | CHIP of C2C12 myoblasts (from UniProt Q9WUD1 1-304) (enzyme) | binds | –
2 | B1 | – | binds
3 | B2 | – | binds

— publication PMC4587574
